Assay results taken from PubChem BioAssay AID504444 (National Center for Advancing Translational Sciences (NCATS), 2011).
In all, about 360,000 compounds went through this assay and about 7,500 (2.1%) were called active. Inconclusive means that the source gave no clear call. Such entries were picked first, then a sample of the others. Calls come from the whole dose curve; as a rule, active = well fitted inhibition curve with a large enough effect; inconclusive = small, poorly fitted or top-dose-only effect, or effect the other way; inactive = flat fitted curve, though single readings scatter. A potency beside an inconclusive call is a rough fit, not a confirmed value.

Assay: Nrf2 qHTS screen for inhibitors; note: nearly all actives have a fitted effect of over 60% in size
Conditions: A549 ARE-Fluc reporter, luciferase luminescence, 18-24 h; series mostly up to 46 µM
Outline: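 Concentration-response testing used A549 ARE_Fluc cells at 5000 cells/well. Following an 18-24 h compound incubation, viability was read by fluorescence (Ex 405/Em 525) and luciferase output by luminescence.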
Potency is the fitted concentration of half-maximal effect.

Compound	Potency
COc1cccc(OCC(=O)Nc2ccccc2NC(C)=O)c1	inactive
Oc1ccccc1-c1nnc(SCCN2CCOCC2)n1Cc1ccccc1	inconclusive: 18.4 µM [falling, partial curve]
COc1ccc(C2=NOC(Cn3nc(C(=O)NCc4ccco4)cc3-c3ccccc3)C2)cc1 (stereo unspecified)	inconclusive: 8.2 µM [falling, partial curve]
Cc1cc(-c2ccccc2)nc2oc3c(c12)NC(=O)CN(c1ccccc1)C3=O	inconclusive: 0.461 µM [falling, partial curve, poor fit]
CC(C)C[C@H]1CNC(=S)N1CC1CCCN1C[C@H](CC(C)C)N1C[C@H](Cc2ccc(O)cc2)N(CC2CCCCC2)C1=S (stereo partly specified)	inconclusive: 16.4 µM [falling, single point]
COc1cc(/C=N/NS(=O)(=O)c2ccc(C)cc2)ccc1OCc1cccc(C(=O)O)c1	inconclusive: 1.03 µM [activator, full curve]
O=S(=O)(Nc1cccc(C(F)(F)F)c1)c1ccc(NS(=O)(=O)c2ccc3c(c2)OCCO3)cc1	inactive
O=C(CCN1CCCCCC1)c1ccccc1	inactive
COC(=O)c1ccccc1-c1c2ccc(=N)cc-2oc2cc(N)ccc12	active: 1.16 µM
CC(=O)Nc1ccc(N=NC2C(=O)N(C(N)=S)N=C2C)cc1 (stereo unspecified)	inconclusive: 20.6 µM [activator, partial curve]
O=C(COC(=O)c1ccccc1)Nc1ncc([N+](=O)[O-])s1	inactive
c1nc(NCc2ccc3c(c2)OCO3)c2cc(-c3ccoc3)ccc2n1	inconclusive: 23.1 µM [falling, single point]
O=C(Nc1ccc(Br)cc1F)c1sccc1-n1cccc1	inconclusive: 0.411 µM [activator, full curve, poor fit]
O=C(Nc1ccc(-n2cnnn2)cc1)c1cc(S(=O)(=O)N2CCCC2)ccc1Cl	inconclusive: 14.6 µM [falling, partial curve, poor fit]
C/C(=N\NC(=S)Nc1cccc(C)c1)c1cccc(N)c1	inconclusive: 14.6 µM [activator, partial curve, poor fit]
CCCCn1c(N)c(N(CCOC)C(=O)c2ccc(-n3c(C)ccc3C)cc2)c(=O)[nH]c1=O	inconclusive: 0.517 µM [activator, full curve]
c1ccc(-n2ncc3c(NCc4ccco4)ncnc32)cc1	inconclusive: 4.11 µM [activator, single point]
Cc1nc2ccn(Cc3cccs3)c(=O)c2cc1C(=O)NCc1ccc(Br)cc1	inactive
O=C1c2cccc([N+](=O)[O-])c2C(=O)N1C1CCCCC1	inconclusive: 23.1 µM [falling, partial curve, poor fit]
COc1ccc(-c2sc3cc(OC)c(OC)cc3c2-c2ccc(O)cc2)cc1	inconclusive: 29.1 µM [falling, single point]
C=CCNC(=O)c1onc(CSc2ccc(C(C)C)cc2)c1C(=O)O	inconclusive: 23.1 µM [activator, partial curve]

Compound	Potency
Cc1cc(NS(=O)(=O)c2ccc(NC(=O)COc3ccc(Cl)cc3Cl)cc2)no1	inconclusive: 29.1 µM [falling, single point]
N#Cc1ccc(-c2csc(NC3=NCCCCC3)n2)cc1	inconclusive: 1.46 µM [activator, partial curve]
CCOC(=O)c1c(-c2ccccc2)csc1NC(=O)/C(C#N)=C\c1ccc(O)c(OC)c1	inactive
c1ccc(-c2cn3ccccc3n2)cc1	inconclusive: 1.84 µM [activator, full curve]
CCCC(=O)OCC(=O)Nc1ccc(N=Nc2ccccc2)cc1	inconclusive: 0.92 µM [activator, full curve]
Cc1ccsc1/C=N/N1CCN(c2ccccn2)CC1	inconclusive: 18.4 µM [activator, partial curve, poor fit]
Cc1cccc(C)c1OCc1nnc(SCC(=O)Nc2nccs2)o1	inconclusive: 23.1 µM [falling, single point]
COc1ccccc1N1CCN(C(=O)c2cc(N3C(=O)C4C5CCC(C5)C4C3=O)ccc2Cl)CC1 (stereo unspecified)	inconclusive: 16.4 µM [falling, partial curve, poor fit]
Cc1ccc(C(=O)c2cn(Cc3ccccc3F)c3cc4c(cc3c2=O)OCCO4)cc1	inconclusive: 2.59 µM [activator, full curve]
Cc1ccc(-n2c(C)cc(C3=NNC(=NC4CC4)SC3)c2C)cc1C	inconclusive: 6.51 µM [falling, single point]
O=C(CN(Cc1ccco1)C(=O)CNS(=O)(=O)c1ccc(F)cc1)NCc1ccccc1	inconclusive: 23.1 µM [falling, single point]
Oc1ccc(/C=N/NC(=S)NC2CC3CCC2C3)cc1 (stereo unspecified)	inconclusive: 4.61 µM [activator, full curve]
CN(C)CCNC(=O)c1ccc(Cn2c(SCc3ccc(F)cc3)nc3cccnc32)cc1	inconclusive: 29.1 µM [activator, single point]
O=C(c1cc(-c2ccccc2O)on1)N1CCc2ccccc2C1	inactive
CCCCn1nnc(NC(=O)c2cc3ccccc3o2)n1	inconclusive: 3.66 µM [activator, partial curve]
Cc1ccc(NC(=O)CSC2=C(C#N)C(c3ccco3)C3=C(CCCC3=O)N2)cc1 (stereo unspecified)	inconclusive: 8.2 µM [falling, partial curve, poor fit]
O=C(NC(Nc1ncc(S(=O)(=O)c2ccc([N+](=O)[O-])cc2)s1)(C(F)(F)F)C(F)(F)F)c1ccc(Cl)cc1	active: 5.8 µM
O=S(=O)(NC1CCCCC1)c1ccc(F)c2ccccc12	inconclusive: 25.9 µM [falling, partial curve, poor fit]
CCC(=O)Oc1cc(C(C)(C)C)cc2cc(-c3nc(-c4ccc(OC)cc4OC)no3)c(=O)oc12	inconclusive: 29.1 µM [activator, single point]
O=C(/C=C/c1ccccc1Cl)Nc1cccc(S(=O)(=O)NC2=NCCCCC2)c1	active: 9.2 µM

Individual results from above:
For Potency, COC(=O)c1ccccc1-c1c2ccc(=N)cc-2oc2cc(N)ccc12 reads active: 1.16 µM
For Potency, O=C(/C=C/c1ccccc1Cl)Nc1cccc(S(=O)(=O)NC2=NCCCCC2)c1 reads active: 9.2 µM
For Potency, COc1ccc(C2=NOC(Cn3nc(C(=O)NCc4ccco4)cc3-c3ccccc3)C2)cc1 (stereo unspecified) reads inconclusive: 8.2 µM [falling, partial curve]
